{
  "sequences": {"note": "Amino acid sequences for entries named in this document (tags omitted). A change or cut given only in a name is not applied to a line headed by its entry.", "UniProt F4KH55": "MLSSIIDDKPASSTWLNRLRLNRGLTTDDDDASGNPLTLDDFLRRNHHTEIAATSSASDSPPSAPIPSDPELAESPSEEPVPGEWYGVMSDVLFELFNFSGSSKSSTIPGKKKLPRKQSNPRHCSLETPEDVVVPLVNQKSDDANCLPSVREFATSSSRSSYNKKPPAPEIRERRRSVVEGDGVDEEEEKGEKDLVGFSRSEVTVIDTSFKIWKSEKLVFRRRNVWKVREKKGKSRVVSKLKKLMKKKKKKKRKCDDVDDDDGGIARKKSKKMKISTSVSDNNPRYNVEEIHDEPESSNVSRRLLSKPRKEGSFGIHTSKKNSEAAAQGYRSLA", "UniProt O22467": "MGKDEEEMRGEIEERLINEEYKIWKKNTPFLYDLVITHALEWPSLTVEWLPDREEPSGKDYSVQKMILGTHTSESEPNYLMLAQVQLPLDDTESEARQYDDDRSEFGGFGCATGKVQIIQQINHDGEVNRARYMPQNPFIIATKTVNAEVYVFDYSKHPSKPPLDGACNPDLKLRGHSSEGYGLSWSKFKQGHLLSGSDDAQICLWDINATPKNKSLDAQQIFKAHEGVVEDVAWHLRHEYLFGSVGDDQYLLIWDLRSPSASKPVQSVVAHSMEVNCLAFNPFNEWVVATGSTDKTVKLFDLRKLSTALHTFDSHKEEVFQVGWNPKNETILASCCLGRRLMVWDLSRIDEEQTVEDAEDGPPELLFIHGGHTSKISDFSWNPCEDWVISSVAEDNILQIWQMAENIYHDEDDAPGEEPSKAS"},
  "source": "paper PMC7282668",
  "molecules": {"B1": {"name": "ALP1 (endogenous) (protein, UniProt Q94K49 1-396)", "chain": "MAPVKQKKKNKKKPLDKAKKLAKNKEKKRVNAVPLDPEAIDCDWWDTFWLRNSSPSVPSDEDYAFKHFFRASKTTFSYICSLVREDLISRPPSGLINIEGRLLSVEKQVAIALRRLASGDSQVSVGAAFGVGQSTVSQVTWRFIEALEERAKHHLRWPDSDRIEEIKSKFEEMYGLPNCCGAIDTTHIIMTLPAVQASDDWCDQEKNYSMFLQGVFDHEMRFLNMVTGWPGGMTVSKLLKFSGFFKLCENAQILDGNPKTLSQGAQIREYVVGGISYPLLPWLITPHDSDHPSDSMVAFNERHEKVRSVAATAFQQLKGSWRILSKVMWRPDRRKLPSIILVCCLLHNIIIDCGDYLQEDVPLSGHHDSGYADRYCKQTEPLGSELRGCLTEHLLR"}, "B2": {"name": "LHP1 (endogenous) (protein, UniProt Q946J8 1-445)", "chain": "MKGASGAVKKKPQVLNEAGEAETAVETVGESRKISGDGGFGSDDGGGGGGGGSGESILREIGDDRPTEDGDEEEEEDEDEDDGGDEEDEEGEGEGGQEERPKLDEGFYEIEAIRRKRVRKGKVQYLIKWRGWPETANTWEPLENLQSIADVIDAFEGSLKPGKPGRKRKRKYAGPHSQMKKKQRLTSTSHDATEKSDSSTSLNNSSLPDIPDPLDLSGSSLLNRDVEAKNAYVSNQVEANSGSVGMARQVRLIDNEKEYDPTLNELRGPVNNSNGAGCSQGGGIGSEGDNVRPNGLLKVYPKELDKNSRFIGAKRRKSGSVKRFKQDGSTSNNHTAPTDQNLTPDLTTLDSFGRIARMGNEYPGVMENCNLSQKTKIEELDITKILKPMSFTASVSDNVQEVLVTFLALRSDGKEALVDNRFLKAHNPHLLIEFYEQHLKYNRTP"}, "B3": {"name": "EMF1 (endogenous) (protein, UniProt Q9LYD9 1-1096)", "chain": "MGSSIKINSISIDLAGAANEIDMVKCDHFSMRGFVAETRERDLRKCWPFSEESVSLVDQQSYTLPTLSVPKFRWWHCMSCIKDIDAHGPKDCGLHSNSKAIGNSSVIESKSKFNSLTIIDHEKEKKTDIADNAIEEKVGVNCENDDQTATTFLKKARGRPMGASNVRSKSRKLVSPEQVGNNRSKEKLNKPSMDISSWKEKQNVDQAVTTFGSSEIAGVVEDTPPKATKNHKGIRGLMECDNGSSESINLAMSGLQRRKSRKVRLLSELLGNTKTSGGSNIRKEESALKKESVRGRKRKLLPENNYVSRILSTMGATSENASKSCDSDQGNSESTDSGFDRTPFKGKQRNRRFQVVDEFVPSLPCETSQEGIKEHDADPSKRSTPAHSLFTGNDSVPCPPGTQRTERKLSLPKKKTKKPVIDNGKSTVISFSNGIDGSQVNSHTGPSMNTVSQTRDLLNGKRVGGLFDNRLASDGYFRKYLSQVNDKPITSLHLQDNDYVRSRDAEPNCLRDFSSSSKSSSGGWLRTGVDIVDFRNNNHNTNRSSFSNLKLRYPPSSTEVADLSRVLQKDASGADRKGKTVMVQEHHGAPRSQSHDRKETTTEEQNNDDIPMEIVELMAKNQYERCLPDKEEDVSNKQPSQETAHKSKNALLIDLNETYDNGISLEDNNTSRPPKPCSSNARREEHFPMGRQQNSHDFFPISQPYVPSPFGIFPPTQENRASSIRFSGHNCQWLGNLPTVGNQNPSPSSFRVLRACDTCQSVPNQYREASHPIWPSSMIPPQSQYKPVSLNINQSTNPGTLSQASNNENTWNLNFVAANGKQKCGPNPEFSFGCKHAAGVSSSSSRPIDNFSSESSIPALHLLSLLDPRLRSTTPADQHGNTKFTKRHFPPANQSKEFIELQTGDSSKSAYSTKQIPFDLYSKRFTQEPSRKSFPITPPIGTSSLSFQNASWSPHHQEKKTKRKDTFAPVYNTHEKPVFASSNDQAKFQLLGASNSMMLPLKFHMTDKEKKQKRKAESCNNNASAGPVKNSSGPIVCSVNRNPADFTIPEPGNVYMLTGEHLKVRKRTTFKKKPAVCKQDAMKQTKKPVCPPTQNA"}, "B4": {"name": "FIE (endogenous) (protein, UniProt Q9LT47 1-369)", "chain": "MSKITLGNESIVGSLTPSNKKSYKVTNRIQEGKKPLYAVVFNFLDARFFDVFVTAGGNRITLYNCLGDGAISALQSYADEDKEESFYTVSWACGVNGNPYVAAGGVKGIIRVIDVNSETIHKSLVGHGDSVNEIRTQPLKPQLVITASKDESVRLWNVETGICILIFAGAGGHRYEVLSVDFHPSDIYRFASCGMDTTIKIWSMKEFWTYVEKSFTWTDDPSKFPTKFVQFPVFTASIHTNYVDCNRWFGDFILSKSVDNEILLWEPQLKENSPGEGASDVLLRYPVPMCDIWFIKFSCDLHLSSVAIGNQEGKVYVWDLKSCPPVLITKLSHNQSKSVIRQTAMSVDGSTILACCEDGTIWRWDVITK"}, "B5": {"name": "EMF2 (endogenous) (protein, UniProt Q8L6Y4 1-631)", "chain": "MPGIPLVSRETSSCSRSTEQMCHEDSRLRISEEEEIAAEESLAAYCKPVELYNIIQRRAIRNPLFLQRCLHYKIEAKHKRRIQMTVFLSGAIDAGVQTQKLFPLYILLARLVSPKPVAEYSAVYRFSRACILTGGLGVDGVSQAQANFLLPDMNRLALEAKSGSLAILFISFAGAQNSQFGIDSGKIHSGNIGGHCLWSKIPLQSLYASWQKSPNMDLGQRVDTVSLVEMQPCFIKLKSMSEEKCVSIQVPSNPLTSSSPQQVQVTISAEEVGSTEKSPYSSFSYNDISSSSLLQIIRLRTGNVVFNYRYYNNKLQKTEVTEDFSCPFCLVKCASFKGLRYHLPSTHDLLNFEFWVTEEFQAVNVSLKTETMISKVNEDDVDPKQQTFFFSSKKFRRRRQKSQVRSSRQGPHLGLGCEVLDKTDDAHSVRSEKSRIPPGKHYERIGGAESGQRVPPGTSPADVQSCGDPDYVQSIAGSTMLQFAKTRKISIERSDLRNRSLLQKRQFFHSHRAQPMALEQVLSDRDSEDEVDDDVADFEDRRMLDDFVDVTKDEKQMMHMWNSFVRKQRVLADGHIPWACEAFSRLHGPIMVRTPHLIWCWRVFMVKLWNHGLLDARTMNNCNTFLEQLQI"}, "B6": {"name": "SWN (endogenous) (protein, UniProt Q9ZSM8 1-856)", "chain": "MVTDDSNSSGRIKSHVDDDDDGEEEEDRLEGLENRLSELKRKIQGERVRSIKEKFEANRKKVDAHVSPFSSAASSRATAEDNGNSNMLSSRMRMPLCKLNGFSHGVGDRDYVPTKDVISASVKLPIAERIPPYTTWIFLDRNQRMAEDQSVVGRRQIYYEQHGGETLICSDSEEEPEPEEEKREFSEGEDSIIWLIGQEYGMGEEVQDALCQLLSVDASDILERYNELKLKDKQNTEEFSNSGFKLGISLEKGLGAALDSFDNLFCRRCLVFDCRLHGCSQPLISASEKQPYWSDYEGDRKPCSKHCYLQLKAVREVPETCSNFASKAEEKASEEECSKAVSSDVPHAAASGVSLQVEKTDIGIKNVDSSSGVEQEHGIRGKREVPILKDSNDLPNLSNKKQKTAASDTKMSFVNSVPSLDQALDSTKGDQGGTTDNKVNRDSEADAKEVGEPIPDNSVHDGGSSICQPHHGSGNGAIIIAEMSETSRPSTEWNPIEKDLYLKGVEIFGRNSCLIARNLLSGLKTCLDVSNYMRENEVSVFRRSSTPNLLLDDGRTDPGNDNDEVPPRTRLFRRKGKTRKLKYSTKSAGHPSVWKRIAGGKNQSCKQYTPCGCLSMCGKDCPCLTNETCCEKYCGCSKSCKNRFRGCHCAKSQCRSRQCPCFAAGRECDPDVCRNCWVSCGDGSLGEAPRRGEGQCGNMRLLLRQQQRILLGKSDVAGWGAFLKNSVSKNEYLGEYTGELISHHEADKRGKIYDRANSSFLFDLNDQYVLDAQRKGDKLKFANHSAKPNCYAKVMFVAGDHRVGIFANERIEASEELFYDYRYGPDQAPVWARKPEGSKKDDSAITHRRARKHQSH"}, "B7": {"name": "CLF (endogenous) (protein, UniProt P93831 1-902)", "chain": "MASEASPSSSATRSEPPKDSPAEERGPASKEVSEVIESLKKKLAADRCISIKKRIDENKKNLFAITQSFMRSSMERGGSCKDGSDLLVKRQRDSPGMKSGIDESNNNRYVEDGPASSGMVQGSSVPVKISLRPIKMPDIKRLSPYTTWVFLDRNQRMTEDQSVVGRRRIYYDQTGGEALICSDSEEEAIDDEEEKRDFLEPEDYIIRMTLEQLGLSDSVLAELASFLSRSTSEIKARHGVLMKEKEVSESGDNQAESSLLNKDMEGALDSFDNLFCRRCLVFDCRLHGCSQDLIFPAEKPAPWCPPVDENLTCGANCYKTLLKSGRFPGYGTIEGKTGTSSDGAGTKTTPTKFSSKLNGRKPKTFPSESASSNEKCALETSDSENGLQQDTNSDKVSSSPKVKGSGRRVGRKRNKNRVAERVPRKTQKRQKKTEASDSDSIASGSCSPSDAKHKDNEDATSSSQKHVKSGNSGKSRKNGTPAEVSNNSVKDDVPVCQSNEVASELDAPGSDESLRKEEFMGETVSRGRLATNKLWRPLEKSLFDKGVEIFGMNSCLIARNLLSGFKSCWEVFQYMTCSENKASFFGGDGLNPDGSSKFDINGNMVNNQVRRRSRFLRRRGKVRRLKYTWKSAAYHSIRKRITEKKDQPCRQFNPCNCKIACGKECPCLLNGTCCEKYCGCPKSCKNRFRGCHCAKSQCRSRQCPCFAADRECDPDVCRNCWVIGGDGSLGVPSQRGDNYECRNMKLLLKQQQRVLLGISDVSGWGAFLKNSVSKHEYLGEYTGELISHKEADKRGKIYDRENCSFLFNLNDQFVLDAYRKGDKLKFANHSPEPNCYAKVIMVAGDHRVGIFAKERILAGEELFYDYRYEPDRAPAWAKKPEAPGSKKDENVTPSVGRPKKLA"}},
  "note": "No constants are given. Whether binding was seen depends on the method and setting. In cells and extracts the contact can be indirect. These calls come from enrichment with a bait or labelling near it, and not all partners need be listed. No binding means not detected with the bait. For some assays here: Sequences can lack the tags named with a protein.",
  "data": [
    {"biological_target": "GS^rhino-ALP2 (35S::GS^rhino-ALP2) (Arabidopsis thaliana)", "assay": "affinity purification with mass spectrometry; two-step tandem affinity purification of GS^rhino-ALP2 from dark grown PSB-D suspension culture cells; non-transgenic cells as control; three replicates", "values": [
      {"molecule": "B1", "binding": "binds"},
      {"molecule": "B2", "binding": "no binding"},
      {"molecule": "B3", "binding": "no binding"}
    ]},
    {"biological_target": "GFP-ALP2 (35S::GFP-ALP2) (Arabidopsis thaliana) (UniProt F4KH55)", "assay": "affinity purification with mass spectrometry; IP of GFP-tagged bait from inflorescence extracts with GFP-trap agarose beads; 10mM Tris pH 7.5, 150 mM NaCl, 0.5% Igepal, 1% Triton; three independent experiments; 35S::GFP as control", "values": [
      {"molecule": "MSI1 (endogenous) (from UniProt O22467 1-424)", "binding": "binds"},
      {"molecule": "B1", "binding": "binds"},
      {"molecule": "B4", "binding": "binds"},
      {"molecule": "B5", "binding": "binds"},
      {"molecule": "B6", "binding": "binds"},
      {"molecule": "B7", "binding": "binds"},
      {"molecule": "B2", "binding": "no binding"},
      {"molecule": "B3", "binding": "no binding"}
    ]},
    {"biological_target": "T1, ALP1-GFP (pALP1::ALP1-GFP) (Arabidopsis thaliana) (UniProt Q94K49)", "T1 sequence": "B1 chain", "assay": "affinity purification with mass spectrometry; IP of GFP-tagged bait from inflorescence extracts with GFP-trap agarose beads; 10mM Tris pH 7.5, 150 mM NaCl, 0.5% Igepal, 1% Triton; three independent experiments; 35S::GFP as control", "values": [
      {"molecule": "ALP2 (endogenous)", "binding": "binds"},
      {"molecule": "B2", "binding": "no binding"},
      {"molecule": "B3", "binding": "no binding"}
    ]}
  ]
}
